Measurements taken from patent US5773263A, “Production aflastatin A from streptomyces sp., a pharmaceutical composition and methods of use” (Morinaga & Co., Ltd., priority 1996, dated 1998).

Test system: peanut plants
Test: Weight of sprayed peanut plants and of their grains
Format: in vivo, peanut (US-Florunner)
Conditions: for Weight of seven pieces of peanut grains: control 11.0; for Number of grains with shells: control 76; for Weight of grains with shells: control 213.7; for Weight of plants: control 485.1

## CCCCCCCCCC(O)C[C@]1(O)O[C@H](CC(O)C(O)C(O)C(O)C(O)CC(O)CC(O)CC(O)C(C)C(O)C(C)C(O)CC(O)C(C)C(O)C(C)C(O)C(C)C(O)C(O)CC(C)CC(C)/C=C(C)/C(O)=C2/C(=O)C(C)N(C)C2=O)[C@@H](O)[C@H](O)[C@@H]1O (some centres unmarked) [aflastatin A]
Aflastatin A 2 mg/individual
  Weight of seven pieces of peanut grains: 11.6 g
  Number of grains with shells: 60 number
  Weight of grains with shells: 167.4 g
  Weight of plants: 413.5 g
Aflastatin A 10 mg/individual
  Weight of seven pieces of peanut grains: 11.5 g
  Number of grains with shells: 66 number
  Weight of grains with shells: 192.8 g
  Weight of plants: 432.1 g
